Measurements: the supplement of paper PMC8728848
This is one part of the list.

Experiments:
Experiment in all cases: glycan array binding signal (z-score within array); higher = stronger binding
Conditions in all cases: glycan notation: IUPAC condensed, linker removed
[1] = target: Fuc(a1-2)Gal6S(b1-3)GlcNAc6S
Procedure, shortened: (§1)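 Glycan array data were curated from 3228 arrays in the Consortium for Functional Glycomics database and kept only where the protein sequence was available. Glycan names were converted to IUPAC-condensed notation, and columns mapping to the same glycan were averaged. The binding signal is a within-array Z-score, averaged across arrays of the same protein sequence at different concentrations or buffers and across linkers. Negative Z-scores can be read as non-binding.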

Fuc(a1-2)Gal6S(b1-4)Glc = target: Fuc(a1-2)Gal6S(b1-4)Glc
Procedure, shortened: as §1

[2] = target: Fuc(a1-2)Gal6S(b1-4)Glc6S
Procedure, shortened: as §1

Fuc(a1-2)[Gal(a1-3)]Gal = target: Fuc(a1-2)[Gal(a1-3)]Gal
Procedure, shortened: as §1

[3] = target: Fuc(a1-2)[Gal(a1-3)]Gal(b1-3)GalNAc
Procedure, shortened: as §1

[4] = target: Fuc(a1-2)[Gal(a1-3)]Gal(b1-3)GalNAc(b1-3)Gal(a1-4)Gal(b1-4)Glc
Procedure, shortened: as §1

[5] = target: Fuc(a1-2)[Gal(a1-3)]Gal(b1-3)GlcNAc
Procedure, shortened: as §1

[6] = target: Fuc(a1-2)[Gal(a1-3)]Gal(b1-3)GlcNAc(b1-2)Man(a1-3)[Fuc(a1-2)[Gal(a1-3)]Gal(b1-3)GlcNAc(b1-2)Man(a1-6)]Man(b1-4)GlcNAc(b1-4)GlcNAc
Procedure, shortened: as §1

[7] = target: Fuc(a1-2)[Gal(a1-3)]Gal(b1-3)GlcNAc(b1-2)Man(a1-3)[Fuc(a1-2)[Gal(a1-3)]Gal(b1-3)GlcNAc(b1-2)Man(a1-6)]Man(b1-4)GlcNAc(b1-4)[Fuc(a1-6)]GlcNAc
Procedure, shortened: as §1

[8] = target: Fuc(a1-2)[Gal(a1-3)]Gal(b1-3)GlcNAc(b1-3)GalNAc
Procedure, shortened: as §1

[9] = target: Fuc(a1-2)[Gal(a1-3)]Gal(b1-3)GlcNAc(b1-6)GalNAc
Procedure, shortened: as §1

[10] = target: Fuc(a1-2)[Gal(a1-3)]Gal(b1-4)Glc
Procedure, shortened: as §1

[11] = target: Fuc(a1-2)[Gal(a1-3)]Gal(b1-4)GlcNAc
Procedure, shortened: as §1

[12] = target: Fuc(a1-2)[Gal(a1-3)]Gal(b1-4)GlcNAc(b1-2)Man
Procedure, shortened: as §1

[13] = target: Fuc(a1-2)[Gal(a1-3)]Gal(b1-4)GlcNAc(b1-2)Man(a1-3)[Fuc(a1-2)[Gal(a1-3)]Gal(b1-4)GlcNAc(b1-2)Man(a1-6)]Man(b1-4)GlcNAc(b1-4)GlcNAc
Procedure, shortened: as §1

[14] = target: Fuc(a1-2)[Gal(a1-3)]Gal(b1-4)GlcNAc(b1-2)Man(a1-3)[Fuc(a1-2)[Gal(a1-3)]Gal(b1-4)GlcNAc(b1-2)Man(a1-6)]Man(b1-4)GlcNAc(b1-4)[Fuc(a1-6)]GlcNAc
Procedure, shortened: as §1

[15] = target: Fuc(a1-2)[Gal(a1-3)]Gal(b1-4)GlcNAc(b1-3)GalNAc
Procedure, shortened: as §1

[16] = target: Fuc(a1-2)[Gal(a1-3)]Gal(b1-4)GlcNAc(b1-3)[Fuc(a1-2)[Gal(a1-3)]Gal(b1-4)GlcNAc(b1-6)]GalNAc
Procedure, shortened: as §1

[17] = target: Fuc(a1-2)[Gal(a1-3)]Gal(b1-4)GlcNAc(b1-6)GalNAc
Procedure, shortened: as §1

[18] = target: Fuc(a1-2)[Gal(a1-3)]Gal(b1-4)[Fuc(a1-3)]Glc
Procedure, shortened: as §1

[19] = target: Fuc(a1-2)[Gal(a1-3)]Gal(b1-4)[Fuc(a1-3)]GlcNAc
Procedure, shortened: as §1

[20] = target: Fuc(a1-2)[Gal(a1-3)]Gal(b1-4)[Fuc(a1-3)]GlcNAc(b1-3)GalNAc
Procedure, shortened: as §1

[21] = target: Fuc(a1-2)[Gal(a1-4)]Gal(b1-4)GlcNAc
Procedure, shortened: as §1

[22] = target: Fuc(a1-2)[GalNAc(a1-3)]Gal
Procedure, shortened: as §1

[23] = target: Fuc(a1-2)[GalNAc(a1-3)]Gal(b1-3)GalNAc(a1-3)[Fuc(a1-2)]Gal(b1-4)GlcNAc
Procedure, shortened: as §1

[24] = target: Fuc(a1-2)[GalNAc(a1-3)]Gal(b1-3)GalNAc(b1-3)Gal(a1-4)Gal(b1-4)Glc
Procedure, shortened: as §1

[25] = target: Fuc(a1-2)[GalNAc(a1-3)]Gal(b1-3)GlcNAc
Procedure, shortened: as §1

[26] = target: Fuc(a1-2)[GalNAc(a1-3)]Gal(b1-3)GlcNAc(b1-2)Man(a1-3)[Fuc(a1-2)[GalNAc(a1-3)]Gal(b1-3)GlcNAc(b1-2)Man(a1-6)]Man(b1-4)GlcNAc(b1-4)GlcNAc
Procedure, shortened: as §1

[27] = target: Fuc(a1-2)[GalNAc(a1-3)]Gal(b1-3)GlcNAc(b1-2)Man(a1-3)[Fuc(a1-2)[GalNAc(a1-3)]Gal(b1-3)GlcNAc(b1-2)Man(a1-6)]Man(b1-4)GlcNAc(b1-4)[Fuc(a1-6)]GlcNAc
Procedure, shortened: as §1

[28] = target: Fuc(a1-2)[GalNAc(a1-3)]Gal(b1-3)GlcNAc(b1-3)GalNAc
Procedure, shortened: as §1

[29] = target: Fuc(a1-2)[GalNAc(a1-3)]Gal(b1-3)GlcNAc(b1-6)GalNAc
Procedure, shortened: as §1

[30] = target: Fuc(a1-2)[GalNAc(a1-3)]Gal(b1-4)Glc
Procedure, shortened: as §1

[31] = target: Fuc(a1-2)[GalNAc(a1-3)]Gal(b1-4)GlcNAc
Procedure, shortened: as §1

[32] = target: Fuc(a1-2)[GalNAc(a1-3)]Gal(b1-4)GlcNAc(b1-2)Man
Procedure, shortened: as §1

[33] = target: Fuc(a1-2)[GalNAc(a1-3)]Gal(b1-4)GlcNAc(b1-2)Man(a1-3)[Fuc(a1-2)[GalNAc(a1-3)]Gal(b1-4)GlcNAc(b1-2)Man(a1-6)]Man(b1-4)GlcNAc(b1-4)GlcNAc
Procedure, shortened: as §1

[34] = target: Fuc(a1-2)[GalNAc(a1-3)]Gal(b1-4)GlcNAc(b1-2)Man(a1-3)[Fuc(a1-2)[GalNAc(a1-3)]Gal(b1-4)GlcNAc(b1-2)Man(a1-6)]Man(b1-4)GlcNAc(b1-4)[Fuc(a1-6)]GlcNAc
Procedure, shortened: as §1

[35] = target: Fuc(a1-2)[GalNAc(a1-3)]Gal(b1-4)GlcNAc(b1-3)Gal(b1-4)GlcNAc
Procedure, shortened: as §1

[36] = target: Fuc(a1-2)[GalNAc(a1-3)]Gal(b1-4)GlcNAc(b1-3)Gal(b1-4)GlcNAc(b1-3)Gal(b1-4)GlcNAc
Procedure, shortened: as §1

[37] = target: Fuc(a1-2)[GalNAc(a1-3)]Gal(b1-4)GlcNAc(b1-3)GalNAc
Procedure, shortened: as §1

[38] = target: Fuc(a1-2)[GalNAc(a1-3)]Gal(b1-4)GlcNAc(b1-3)[Fuc(a1-2)[GalNAc(a1-3)]Gal(b1-4)GlcNAc(b1-6)]GalNAc
Procedure, shortened: as §1

[39] = target: Fuc(a1-2)[GalNAc(a1-3)]Gal(b1-4)GlcNAc(b1-6)GalNAc
Procedure, shortened: as §1

[40] = target: Fuc(a1-2)[GalNAc(a1-3)]Gal(b1-4)[Fuc(a1-3)]GlcNAc
Procedure, shortened: as §1

[41] = target: Fuc(a1-2)[GalNAc(a1-3)]Gal(b1-4)[Fuc(a1-3)]GlcNAc(b1-3)GalNAc
Procedure, shortened: as §1

[42] = target: Fuc(a1-2)[GalNAc(a1-4)]Gal(b1-4)GlcNAc
Procedure, shortened: as §1

[43] = target: Fuc(a1-2)[GalNAc(b1-3)]Gal
Procedure, shortened: as §1

B1: Aap brpt (Staphylococcus epidermidis) (protein)
chain: VDGDPITSTEEIPFDKKREFDPNLAPGTEKVVQKGEPGTKTITTPTTKNPLTGEKVGEGEPTEKITKQPVDEIVHYGGEEIKTGHKDEFDPNAPKGSQTTQPGKPGVKNPDTGEVVTPPVDDVTKYGPVDGDPITSTEEIPFDKKREFDPNLAPGTEKVVQKGEPGTKTITTPTTKNPLTGEKVGEGEPTEKITKQPVDEIVHYGGEEIKPGHKDEFDPNAPKGSQEDVPGKPGVKNPDTGEVVTPPVDDVTKYGPVDGDSITSTEEIPFDKKREFDPNLAPGTEKVVQKGEPGTKTITTPTTKNPLTGEKVGEGEPTEKITKQPVDEIVHYGGEQIPQGHKDEFDPNAPVDSKTEVPGKPGVKNPDTGEVVTPPVDDVTKYGPVDGDSITSTEEIPFDKKREFDPNLAPGTEKVVQKGEPGTKTITTPTTKNPLTGEKVGEGKSTEKVTKQPVDEIVEYGPTK
- glycan array binding signal (z-score) [1]: 0.332
- glycan array binding signal (z-score) (Fuc(a1-2)Gal6S(b1-4)Glc): 0.449
- glycan array binding signal (z-score) [2]: 0.217
- glycan array binding signal (z-score) (Fuc(a1-2)[Gal(a1-3)]Gal): -0.899
- glycan array binding signal (z-score) [3]: 1.31
- glycan array binding signal (z-score) [4]: 0.94
- glycan array binding signal (z-score) [5]: 0.297
- glycan array binding signal (z-score) [6]: 0.588
- glycan array binding signal (z-score) [7]: 0.53
- glycan array binding signal (z-score) [8]: -0.07
- glycan array binding signal (z-score) [9]: -1.34
- glycan array binding signal (z-score) [10]: -0.658
- glycan array binding signal (z-score) [11]: 0.353
- glycan array binding signal (z-score) [12]: 1.05
- glycan array binding signal (z-score) [13]: -0.639
- glycan array binding signal (z-score) [14]: -1.31
- glycan array binding signal (z-score) [15]: 0.749
- glycan array binding signal (z-score) [16]: 0.447
- glycan array binding signal (z-score) [17]: 0.142
- glycan array binding signal (z-score) [18]: -0.313
- glycan array binding signal (z-score) [19]: -0.457
- glycan array binding signal (z-score) [20]: -1.01
- glycan array binding signal (z-score) [21]: -0.889
- glycan array binding signal (z-score) [22]: 0.623
- glycan array binding signal (z-score) [23]: -1.01
- glycan array binding signal (z-score) [24]: -0.753
- glycan array binding signal (z-score) [25]: -0.813
- glycan array binding signal (z-score) [26]: -0.132
- glycan array binding signal (z-score) [27]: 0.816
- glycan array binding signal (z-score) [28]: 0.236
- glycan array binding signal (z-score) [29]: 0.06
- glycan array binding signal (z-score) [30]: 0.427
- glycan array binding signal (z-score) [31]: -0.292
- glycan array binding signal (z-score) [32]: -1.22
- glycan array binding signal (z-score) [33]: -0.89
- glycan array binding signal (z-score) [34]: 0.323
- glycan array binding signal (z-score) [35]: -0.155
- glycan array binding signal (z-score) [36]: -0.361
- glycan array binding signal (z-score) [37]: -2.27
- glycan array binding signal (z-score) [38]: 0.032
- glycan array binding signal (z-score) [39]: 1.65
- glycan array binding signal (z-score) [40]: 0.27
- glycan array binding signal (z-score) [41]: 0.861
- glycan array binding signal (z-score) [42]: 0.881
- glycan array binding signal (z-score) [43]: -1.97
